Assay results published in the supplement of paper PMC12067093, “Discovery and optimisation of a covalent ligand for TRIM25 and its application to targeted protein ubiquitination” (Chemical Science, 2025).
Some of the results follow.

Protein sequences, listed by entry. Tags and fused reporters are not part of them. Lines headed by an entry give the natural chain unless they say otherwise; changes in a name come on top.
UniProt Q9P260: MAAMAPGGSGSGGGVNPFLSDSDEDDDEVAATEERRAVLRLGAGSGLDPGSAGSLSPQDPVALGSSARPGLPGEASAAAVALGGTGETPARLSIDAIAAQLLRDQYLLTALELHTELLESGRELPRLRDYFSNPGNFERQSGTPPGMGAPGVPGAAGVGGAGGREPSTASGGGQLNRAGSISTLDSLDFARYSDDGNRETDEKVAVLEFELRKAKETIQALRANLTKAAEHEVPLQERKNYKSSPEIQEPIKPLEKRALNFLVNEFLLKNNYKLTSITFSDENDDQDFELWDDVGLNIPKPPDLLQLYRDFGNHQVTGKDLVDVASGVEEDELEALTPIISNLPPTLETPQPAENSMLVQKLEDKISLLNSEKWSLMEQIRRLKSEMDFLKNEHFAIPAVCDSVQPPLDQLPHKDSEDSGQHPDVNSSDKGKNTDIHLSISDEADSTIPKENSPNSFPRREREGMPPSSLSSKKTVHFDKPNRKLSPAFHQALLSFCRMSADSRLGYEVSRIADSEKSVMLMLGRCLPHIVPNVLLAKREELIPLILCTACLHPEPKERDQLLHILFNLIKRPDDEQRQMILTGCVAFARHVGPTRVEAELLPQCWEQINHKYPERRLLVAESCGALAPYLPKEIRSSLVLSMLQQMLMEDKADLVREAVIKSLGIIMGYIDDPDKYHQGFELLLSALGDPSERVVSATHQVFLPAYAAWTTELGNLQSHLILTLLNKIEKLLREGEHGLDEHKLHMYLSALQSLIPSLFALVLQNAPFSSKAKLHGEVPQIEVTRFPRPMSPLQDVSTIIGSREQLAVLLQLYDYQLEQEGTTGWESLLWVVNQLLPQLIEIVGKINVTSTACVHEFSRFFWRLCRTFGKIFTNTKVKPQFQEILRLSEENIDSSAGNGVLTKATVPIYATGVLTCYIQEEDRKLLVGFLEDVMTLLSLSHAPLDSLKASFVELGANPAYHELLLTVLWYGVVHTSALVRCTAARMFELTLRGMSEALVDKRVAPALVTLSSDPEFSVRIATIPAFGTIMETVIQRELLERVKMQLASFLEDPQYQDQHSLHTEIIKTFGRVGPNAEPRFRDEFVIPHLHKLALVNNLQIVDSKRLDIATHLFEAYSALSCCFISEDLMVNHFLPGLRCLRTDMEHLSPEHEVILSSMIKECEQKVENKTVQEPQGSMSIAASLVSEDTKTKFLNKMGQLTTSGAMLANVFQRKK

Target: RELCH_Q9P260_526_CLPHIVPNVLLAK (UniProt Q9P260)
Test: probe-labelled cysteine peptide fold change vs DMSO (competition) (log2 fold change); higher = less target engagement (more negative = stronger competition)
Conditions: THP-1, incubation time: 4 h
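Further: competitive chemoproteomic profiling in live THP-1 cells with an iodoacetamide desthiobiotin (IA-DTB) probe, comparing probe-labelled peptide intensities in compound-treated cells against DMSO-treated controls.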

In the case of CC1Cc2ccccc2N1C(=O)C1CCCN(C(=O)CCl)C1 (mixture of isomers) [TRIM25 ligand 11 (diastereomer mixture)], the “probe-labelled cysteine peptide fold change” value (10 µM) was -0.0429 and the “probe-labelled cysteine peptide fold change” value (50 µM) was 0.0144.
